Assay results: article PMC8593154
Results are given in words; binding and its absence hold for the method and conditions named. Binding calls can cover weak binding; strength is not graded here. For part of these data: In cells and extracts the contact can be indirect.

Tests used:
[1] = target: γB2ΔICD-EC5-VenusΔN3C9-P3 (mouse) (UniProt Q91XX7); assay: cell aggregation assay; K562 cells individually expressing the constructs, co-cultured, rotated at 30 rpm overnight at 37 °C; aggregates observed by confocal microscopy
[2] = target: γB2ΔICD-EC5-VenusΔN3C9-P3 (mouse) (UniProt Q91XX7); assay: FRET or BRET; Venus/mTQ2 ratio imaging at mTQ2- and Venus-positive cell adhesion sites of co-cultured K562 cells co-expressing N-cadherin with one FRET indicator
[3] = target: γB2ΔICD-EC5-VenusΔN3C9-P3 (mouse) (UniProt Q91XX7); assay: FRET or BRET; Venus/mTQ2 ratio imaging (405 nm excitation of mTQ2, IMD) at cell adhesion sites of aggregates of K562 cells individually expressing donor and acceptor constructs

Measured: binding

γB2ΔICD-EC1-G4S-mTQ2ΔC6 (from UniProt Q91XX7) (receptor)
binds: all assays above
